At least one compound was matched to its structure with a doubt left.
Legend:
VDAC = VDAC cross-linking assay (VDAC oligomerization) in BMDM; assay type: cell-based, mouse; conditions: EtBr 450 ng/mL 4 days, ATP 4 mM 1, 2 or 3 h
Description: BMDM treated as indicated were washed and collected in PBS, incubated for 40 min at 30° C. with the cross-linking reagent EGS (200 μM). Samples were subjected to SDS-PAGE and IB analyzed with anti-VDAC antibody.

BMDM [1] = experiment: mtDNA fragmentation (agarose gel of cytosolic and mitochondrial DNA) in BMDM; assay type: cell-based, mouse; conditions: LPS-primed BMDM pretreated with EtBr 450 ng/ml 4 days
BMDM [2] = experiment: extracellular (cell-free) mtDNA released by donor BMDM; assay type: cell-based, mouse; conditions: LPS-primed donor BMDM pretreated with compound, challenged with ATP or nigericin
Description: Extracellular DNA of donor macrophages (1500,000 cells per group) was isolated using QIAamp Circulating Nucleic Acid Kit according to manufacturer's instructions and then eluted in 300 μL distilled H2O and quantified using spectrophotometric analysis at 260/280 nm with Nanodrop. […] Applicant used 5% of the prepared DNA for qPCR measurement of extracellular mtDNA and the remaining 95% were added to the recipient BMDM for analyzing the paracrine immunostimulatory effects.

BMDM [3] = experiment: stimulation of naive recipient BMDM by cell-free mtDNA (cytokine and ISG mRNA, qPCR); assay type: cell-based, mouse; conditions: recipient BMDM incubated 24 h with DNA from compound-pretreated donor BMDM; cytokine and ISG mRNAs
Description: RNA was extracted using AllPrep DNA/RNA Mini kit, and cDNA was synthesized using SuperScript™ VILO™ cDNA Synthesis Kit. mRNA expression was determined by QPCR in a CFX96 thermal cycler (Biorad) as described (Xian et al., 2021). Data are presented in arbitrary units and calculated by the 2^(−ΔΔCT) method. Primer sequences were obtained from the NIH qPrimerDepot (http://mouseprimerdepot.nci.nih.gov) and provided by Integrated DNA technologies.
Extracellular DNA of donor macrophages (1500,000 cells per group) was isolated using QIAamp Circulating Nucleic Acid Kit according to manufacturer's instructions and then eluted in 300 μL distilled H2O and quantified using spectrophotometric analysis at 260/280 nm with Nanodrop. DNA amounts purified among the different treatment groups vary. The DNA amount secreted from LPS-primed donor BMDM is low, approximately at 0.1 μg. The amount of DNA released by LPS-primed donor BMDM challenged with ATP is about 1.3 μg, while the amount of DNA released by LPS-primed donor BMDM challenged with nigericin is around 2 μg. The amount of DNA secreted by LPS-primed donor BMDM challenged with MSU or alum is about 0.7 μg. Applicant used 5% of the prepared DNA for qPCR measurement of extracellular mtDNA and the remaining 95% were added to the recipient BMDM for analyzing the paracrine immunostimulatory effects.

STING = STING Ser365 phosphorylation (puncta by immunofluorescence, immunoblot) in BMDM; conditions: BMDM pretreated with EtBr 450 ng/ml 4 days, LPS-primed

Question: `CC[n+]1c(-c2ccccc2)c2cc(N)ccc2c2ccc(N)cc21` [EtBr, ethidium bromide] was tested. Which “VDAC oligomerization after mtDNA depletion” value (VDAC) did it give?
Answer: The value was “did not block”.

Question: And the “cytoplasmic DNA of 500-650 bp after nigericin or ATP” value (BMDM [1])?
Answer: The value was “absent”.

Question: And the “cell-free mtDNA release” value (BMDM [2])?
Answer: The value was “greatly reduced”.

Question: What about the “immunostimulatory activity of DNA secreted by treated donor BMDM” value (BMDM [3]) of the same compound?
Answer: Its value is “greatly reduced”.

Question: What about the “ATP-induced STING Ser^365 phosphorylation (immunoblot)” value (STING) of the same compound?
Answer: Its value is “undetectable”.

— patent US20250064808A1, “METHODS FOR THE TREATMENT OF NLRP3 RELATED DISORDERS” (priority 2022, published 2025)
